No constants are given. Whether binding was seen depends on the method and setting. Binding seen in cells or lysates may run through a third protein. Here binding means that the protein was enriched with, or labelled near, the bait; the list need not be complete. Where a sequence is shown, tags or fusion partners need not be part of it.

This assay addresses T1, TMEM79-Myc-Flag (mouse) (UniProt Q9D709).
T1 sequence: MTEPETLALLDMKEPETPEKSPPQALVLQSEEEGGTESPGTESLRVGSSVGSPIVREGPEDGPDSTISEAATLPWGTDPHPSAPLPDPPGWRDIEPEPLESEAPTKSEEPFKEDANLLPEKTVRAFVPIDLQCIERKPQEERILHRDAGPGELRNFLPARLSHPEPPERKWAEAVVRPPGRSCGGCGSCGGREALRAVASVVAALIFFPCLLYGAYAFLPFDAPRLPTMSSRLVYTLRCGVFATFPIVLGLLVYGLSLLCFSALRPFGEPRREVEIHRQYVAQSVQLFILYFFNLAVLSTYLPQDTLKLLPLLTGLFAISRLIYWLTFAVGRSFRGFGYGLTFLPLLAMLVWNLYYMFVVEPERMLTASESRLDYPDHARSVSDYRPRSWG
The experiment in a line: affinity purification with mass spectrometry; tandem affinity purification from HEK293T cells stably expressing TMEM79-Myc-Flag (EGFP cells as control): anti-Flag M2 gel 4 h at 4°C, Flag peptide elution, anti-c-Myc agarose overnight at 4°C, c-Myc peptide elution; visible silver-stained gel bands analysed by mass spectrometry.

B1: USP8 (endogenous) (enzyme, UniProt P40818 1-1118)
chain: MPAVASVPKELYLSSSLKDLNKKTEVKPEKISTKSYVHSALKIFKTAEECRLDRDEERAYVLYMKYVTVYNLIKKRPDFKQQQDYFHSILGPGNIKKAVEEAERLSESLKLRYEEAEVRKKLEEKDRQEEAQRLQQKRQETGREDGGTLAKGSLENVLDSKDKTQKSNGEKNEKCETKEKGAITAKELYTMMTDKNISLIIMDARRMQDYQDSCILHSLSVPEEAISPGVTASWIEAHLPDDSKDTWKKRGNVEYVVLLDWFSSAKDLQIGTTLRSLKDALFKWESKTVLRNEPLVLEGGYENWLLCYPQYTTNAKVTPPPRRQNEEVSISLDFTYPSLEESIPSKPAAQTPPASIEVDENIELISGQNERMGPLNISTPVEPVAASKSDVSPIIQPVPSIKNVPQIDRTKKPAVKLPEEHRIKSESTNHEQQSPQSGKVIPDRSTKPVVFSPTLMLTDEEKARIHAETALLMEKNKQEKELRERQQEEQKEKLRKEEQEQKAKKKQEAEENEITEKQQKAKEEMEKKESEQAKKEDKETSAKRGKEITGVKRQSKSEHETSDAKKSVEDRGKRCPTPEIQKKSTGDVPHTSVTGDSGSGKPFKIKGQPESGILRTGTFREDTDDTERNKAQREPLTRARSEEMGRIVPGLPSGWAKFLDPITGTFRYYHSPTNTVHMYPPEMAPSSAPPSTPPTHKAKPQIPAERDREPSKLKRSYSSPDITQAIQEEEKRKPTVTPTVNRENKPTCYPKAEISRLSASQIRNLNPVFGGSGPALTGLRNLGNTCYMNSILQCLCNAPHLADYFNRNCYQDDINRSNLLGHKGEVAEEFGIIMKALWTGQYRYISPKDFKITIGKINDQFAGYSQQDSQELLLFLMDGLHEDLNKADNRKRYKEENNDHLDDFKAAEHAWQKHKQLNESIIVALFQGQFKSTVQCLTCHKKSRTFEAFMYLSLPLASTSKCTLQDCLRLFSKEEKLTDNNRFYCSHCRARRDSLKKIEIWKLPPVLLVHLKRFSYDGRWKQKLQTSVDFPLENLDLSQYVIGPKNNLKKYNLFSVSNHYGGLDGGHYTAYCKNAARQRWFKFDDHEVSDISVSSVKSSAAYILFYTSLGPRVTDVAT
Take B1: the binding entry was “binds”.

For the origin of these results see article PMC7521923.
